Consider two compounds from US20250149635A1, “SILICATE PLATFORM AS WEAKLY-COORDINATING ANIONS FOR DIVERSE ORGANOMETALLIC TRANSFORMATIONS AND ELECTROCHEMICAL APPLICATIONS” (California Institute of Technology, priority 2023, published 2025).

The series is described as follows: Cyclic voltammetry of Mg deposition/stripping in DME. The format is physicochemical. The conditions noted are these: for coulombic efficiency: 0.25-0.26 M in DME with 10 mM Me2Mg, 100 cycles. On the procedure:
FIG. 14A: Cyclic voltammetry experiments of 0.26 M 1-[Mg(DME)3] with 10 mM of Me2Mg. WE: Pt wire; CE: Mg strip; RE: Mg strip; Scan rate: 25 mVs^−1; Cycling protocol: −0.8 V to 4.0 V, 100 cycles. FIG. 14B: Cycles 1, 25, 50, 75, 100. FIG. 14C: Coulombic efficiency cycles 1-100; Cyclic voltammetry experiments of 0.26 M 1-[Mg(DME)3] with 10 mM of Me2Mg.
FIG. 15A: Cyclic voltammetry experiments of 0.25 M 2-[Mg(DME)3] with 10 mM of Me2Mg. WE: Pt wire; CE: Mg strip; RE: Mg strip; Scan rate: 25 mVs^−1; Cycling protocol: −0.8 V to 3.8 V, 100 cycles; FIG. 15B: Cycles 1, 25, 50, 75, 100. FIG. 15C: Coulombic efficiency cycles 1-100; Cyclic voltammetry experiments of 0.25 M 2-[Mg(DME)3] with 10 mM of Me2Mg.
FIG. 20: Cyclic voltammetry experiments of 0.26 M 1-[Mg(DME)3] in DME.WE: Pt wire; CE: Mg strip; RE: Mg strip; Scan rate: 25 mVs^−1; Cycling protocol: −0.8 V to 4.0 V, 200 cycles.
Cyclic voltammetry experiments of 1-[Mg(DME)3] were run in an empty N2-filled glovebox fitted with a purifier system that consists of a purifier cartridge (ca. 50% activated 4 Å molecular sieves and activated Cu catalyst) and a circulator fan, no solvent or chemicals were stored in the glovebox. Electrolyte solutions were prepared in a separate glovebox by dissolving 1-[Mg(DME)3] in 500 μL of DME and stirred with a new Teflon stir bar until complete dissolution. DME and 1-[Mg(DME)3] were only used with the glovebox circulation purifier turned off after extensive (minimum 20 minutes at […] above atmospheric pressure to ensure full atmosphere exchange) purging of the glovebox atmosphere to avoid cross-contamination with other atmospheric solvents. Upon complete dissolution of the electrolyte, the electrolyte solution was sealed and transported to the electrochemistry glovebox immediately before electrochemical experiments were performed.
Mg electrodes (99.9%, MTI) were polished with a razor blade immediately before use. Pt electrodes (wire, 0.5 mm diameter, 99.995%, Thermo Scientific) were soaked in concentrated HNO3 for at least 72 hours, rinsed with deionized water at least thrice, annealed with an H2 torch, and immediately brought into the glovebox in a flame-dried 20 mL scintillation vial while hot. Cyclic voltammetry experiments of 1-[Mg(DME)3] were performed in glass cells with 0.5 mL of electrolyte. A Pt wire served as the working electrode (WE), and Mg foils were the counter and reference electrodes (CE and RE). Experiments of 1-[Mg(DME)3] were conducted on either a Biologic SP150 potentiostat or a Biologic VSP-300 potentiostat.

In the case of [Mg(DME)3][^PhSi^F24]2 [2-[Mg(DME)3]], the coulombic efficiency result is reported as “ca. 99%”.

`COCCOC.COCCOC.COCCOC.C[Si-]12(OC(C(F)(F)F)(C(F)(F)F)C(C(F)(F)F)(C(F)(F)F)O1)OC(C(F)(F)F)(C(F)(F)F)C(C(F)(F)F)(C(F)(F)F)O2.C[Si-]12(OC(C(F)(F)F)(C(F)(F)F)C(C(F)(F)F)(C(F)(F)F)O1)OC(C(F)(F)F)(C(F)(F)F)C(C(F)(F)F)(C(F)(F)F)O2.[Mg+2]` [1-[Mg(DME)3], [Mg(DME)3][^MeSi^F24]2]: the coulombic efficiency entry is “ca. 97%”. Where the note is “0.26 M in DME with addition of 10 mM Me2Mg”, the “Mg deposition and stripping (in words)” value is “remarkably stable, conditioning-free Mg deposition and stripping from cycle 1”. Moreover, the “Mg deposition and stripping (in words)” value (0.26 M solution in DME, no Me2Mg) was “reversible deposition and stripping of Mg from cycle 1”.
